# Laboratory results from PMC11523043.
# Sequences of proteins named here, by UniProt entry; tags and fusion partners are left off.
# UniProt Q8IZL8: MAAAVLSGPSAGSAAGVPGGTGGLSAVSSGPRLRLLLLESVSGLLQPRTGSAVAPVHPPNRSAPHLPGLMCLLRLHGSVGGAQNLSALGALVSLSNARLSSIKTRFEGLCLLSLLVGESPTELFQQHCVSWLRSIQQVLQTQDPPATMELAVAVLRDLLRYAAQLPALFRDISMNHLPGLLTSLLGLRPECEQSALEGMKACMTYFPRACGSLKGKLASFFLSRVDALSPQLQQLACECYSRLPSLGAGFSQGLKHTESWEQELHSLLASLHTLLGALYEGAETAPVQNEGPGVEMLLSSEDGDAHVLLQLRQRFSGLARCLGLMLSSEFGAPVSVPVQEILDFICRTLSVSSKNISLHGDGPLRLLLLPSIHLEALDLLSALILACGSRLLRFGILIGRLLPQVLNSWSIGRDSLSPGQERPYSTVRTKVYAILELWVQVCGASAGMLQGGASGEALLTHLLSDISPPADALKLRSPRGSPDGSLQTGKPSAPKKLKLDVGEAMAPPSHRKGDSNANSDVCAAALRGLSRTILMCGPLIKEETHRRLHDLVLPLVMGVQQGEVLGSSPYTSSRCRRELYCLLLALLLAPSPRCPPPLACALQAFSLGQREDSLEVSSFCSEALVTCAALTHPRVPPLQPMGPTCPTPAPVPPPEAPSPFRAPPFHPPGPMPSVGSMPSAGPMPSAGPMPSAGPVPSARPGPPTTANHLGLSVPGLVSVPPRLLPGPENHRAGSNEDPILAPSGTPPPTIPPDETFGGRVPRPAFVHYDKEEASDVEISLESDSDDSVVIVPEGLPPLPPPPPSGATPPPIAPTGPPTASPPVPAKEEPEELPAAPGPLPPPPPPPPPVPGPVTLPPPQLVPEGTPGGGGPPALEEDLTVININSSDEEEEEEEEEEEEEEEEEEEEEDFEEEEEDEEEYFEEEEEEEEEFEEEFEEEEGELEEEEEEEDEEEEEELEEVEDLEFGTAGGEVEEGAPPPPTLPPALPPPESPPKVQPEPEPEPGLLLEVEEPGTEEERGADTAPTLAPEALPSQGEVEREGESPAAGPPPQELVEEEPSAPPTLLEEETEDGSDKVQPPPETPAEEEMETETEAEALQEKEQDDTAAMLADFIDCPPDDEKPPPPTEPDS
# UniProt Q9H4L4: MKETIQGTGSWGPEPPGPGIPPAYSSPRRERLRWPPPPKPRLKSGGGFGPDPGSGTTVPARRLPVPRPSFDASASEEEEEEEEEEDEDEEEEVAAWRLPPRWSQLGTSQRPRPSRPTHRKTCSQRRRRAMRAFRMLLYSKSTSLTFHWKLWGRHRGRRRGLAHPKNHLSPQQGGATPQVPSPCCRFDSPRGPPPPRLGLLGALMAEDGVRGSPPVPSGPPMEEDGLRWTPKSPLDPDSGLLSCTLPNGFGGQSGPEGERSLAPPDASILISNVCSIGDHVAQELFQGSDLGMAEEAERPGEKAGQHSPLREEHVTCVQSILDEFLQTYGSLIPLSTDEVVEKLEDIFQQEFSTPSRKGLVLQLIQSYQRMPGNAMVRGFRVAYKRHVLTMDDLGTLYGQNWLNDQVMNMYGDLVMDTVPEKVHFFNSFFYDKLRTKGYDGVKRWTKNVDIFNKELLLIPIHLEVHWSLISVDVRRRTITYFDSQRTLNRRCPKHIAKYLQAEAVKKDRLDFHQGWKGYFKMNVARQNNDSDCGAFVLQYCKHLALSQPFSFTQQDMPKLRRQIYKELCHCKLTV
# Results are given in words; binding and its absence hold for the method and conditions named. In cells and extracts the contact can be indirect. Some entries that bind do so weakly or less than the wild type. Tags and fused reporters may be left off the sequences shown.
# Target: T1, Flag-tagged USP36 (UniProt Q9P275)
# T1 sequence: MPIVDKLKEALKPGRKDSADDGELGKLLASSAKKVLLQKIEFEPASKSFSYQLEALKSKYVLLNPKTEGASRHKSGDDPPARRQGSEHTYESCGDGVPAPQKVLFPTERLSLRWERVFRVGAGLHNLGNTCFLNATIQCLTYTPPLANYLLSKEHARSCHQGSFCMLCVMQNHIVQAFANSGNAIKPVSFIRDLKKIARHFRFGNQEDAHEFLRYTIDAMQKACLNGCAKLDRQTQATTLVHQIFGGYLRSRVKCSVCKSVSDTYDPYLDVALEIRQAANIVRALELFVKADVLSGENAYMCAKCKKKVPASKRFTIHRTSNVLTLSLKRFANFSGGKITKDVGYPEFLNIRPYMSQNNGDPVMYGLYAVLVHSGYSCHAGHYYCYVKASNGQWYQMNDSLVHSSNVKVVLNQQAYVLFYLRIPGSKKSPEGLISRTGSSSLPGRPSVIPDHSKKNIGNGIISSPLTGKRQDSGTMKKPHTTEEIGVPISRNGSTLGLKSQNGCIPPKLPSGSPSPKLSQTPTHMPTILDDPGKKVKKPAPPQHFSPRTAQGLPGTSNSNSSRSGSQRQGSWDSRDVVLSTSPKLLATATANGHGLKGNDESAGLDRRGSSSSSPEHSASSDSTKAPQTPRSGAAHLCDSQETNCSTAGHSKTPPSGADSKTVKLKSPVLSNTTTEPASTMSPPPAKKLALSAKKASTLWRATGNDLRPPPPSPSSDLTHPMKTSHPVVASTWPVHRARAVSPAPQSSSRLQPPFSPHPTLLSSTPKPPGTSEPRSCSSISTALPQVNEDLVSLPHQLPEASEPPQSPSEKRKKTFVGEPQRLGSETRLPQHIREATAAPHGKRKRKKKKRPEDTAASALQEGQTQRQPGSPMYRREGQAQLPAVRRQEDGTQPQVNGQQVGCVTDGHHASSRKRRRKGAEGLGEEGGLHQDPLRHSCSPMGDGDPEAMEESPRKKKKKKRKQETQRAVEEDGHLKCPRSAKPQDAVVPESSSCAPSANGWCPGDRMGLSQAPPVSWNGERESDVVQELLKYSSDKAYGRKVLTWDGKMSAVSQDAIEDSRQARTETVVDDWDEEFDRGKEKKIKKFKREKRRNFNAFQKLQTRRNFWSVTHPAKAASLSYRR
# Test: co-IP; Co-IP experiments of Supplementary Fig. S4; cells and bait not given
row,Substance,binding
1,Pelp1 (from UniProt Q8IZL8 1-1130),binds
2,SENP3 (from UniProt Q9H4L4 1-574) (enzyme),binds
